Source: ChEMBL document CHEMBL3988442, “University of Dundee, Small-Polar-MMV Screening Library” (2021).

Each number is a percent effect as filed. The record does not define 0% and 100%; most values in the screen are far below 50% and negative numbers occur (in some assays of this library far below -100). Compounds were drawn at random from those tested, without regard to their results. A dash means the value is not listed here; it may have been measured.

A: 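Whole-cell assay for inhibitors of Mycobacterium tuberculosis growth, labelled Cornell in the record; the read-out is not stated. The concentration is filed as 10 mM, unlikely as a test dose, so the dose is not known. Higher means stronger inhibition (inferred from two other growth screens of the library). About 53,000 compounds were tested under these conditions; 1.7% (about 900) showed 50% or more at least once.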
B: 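Assay on Mycobacterium tuberculosis, filed only as a heat shock assay from Cornell; the read-out is not stated. The concentration is filed as 10 mM, unlikely as a test dose, so the dose is not known. Direction is inferred from retests: higher values go with stronger inhibition. Of about 69,000 compounds tested this way, about 930 (1.4%) reached 50% or more in at least one test.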

| SMILES | A | B |
|---|---|---|
| `CC(C)C[C@H](NCc1cc(O)c2cccc(F)c2n1)C(N)=O` | 21.59% | 2.107% |
| `Cn1nc(N2CCCC(C(=O)Nc3nccs3)C2)ccc1=O` (centres undefined) | -41.09% | -27.03% |
| `CN1CC[C@]2(CN(C(=O)[C@H]3CCCO3)C[C@H]2c2ccccc2)C1=O` | -20.82% | 6.45% |
| `Cc1nc(-c2ccncc2)nc(N(C)CCc2ccncc2)c1C` | -4.993% | -10.46% |
| `CC(c1nc(C2CC2)no1)N1CCN(CC(=O)N2CCOCC2)CC1` (centres undefined) | 34.99% | 8.775% |
| `COCc1cnc2n1CCN(C(=O)c1cc3ccccc3o1)C2C` (centres undefined) | -31.22% | -8.328% |
| `CC(C)NC(=O)CNC(=O)N1CCc2c([nH]c3ccc(Cl)cc23)C1` | 8.309% | 12.33% |
| `Cc1ccccc1CCCN(C)S(C)(=O)=O` | -17.69% | -3.334% |
| `[H][C@@]12CN(S(=O)(=O)c3ccccc3F)C[C@@]1([H])OCC(=O)N2` | -1.844% | 21.36% |
| `Cc1nc(CN(C)C2CCN(Cc3ccc(C(N)=O)cc3)C2)no1` (centres undefined) | - | 2.714% |
| `O=C(O)C(F)(F)F.[H][C@@]12CN(C(=O)c3cccs3)C[C@]1([H])OCCN2CCOC` | 23.76% | -15.43% |
| `CCc1cc(N2CC(N3CCCCC3C)C2)n2nccc2n1` (centres undefined) | -36.06% | 13.34% |
| `[H][C@@]12CCN(Cc3ccc(C)o3)C[C@]1([H])OCCN(c1cccnc1)C2=O` | -32.23% | -8.6% |
| `CC1CCN(Cc2ccc(CNC(=O)c3ccn(C)c(=O)c3)cc2)CC1` | - | -3.764% |
| `Cc1cc(C[C@@H]2COC[C@@H]2NC(=O)CCN2Cc3ccccc3C2)on1` | - | -24.98% |
| `CS(=O)(=O)CCc1ncnn1-c1ccc(F)c(Cl)c1` | -35.49% | -33.66% |
| `Cn1cc(CNc2ccc(F)c(N3CCCS3(=O)=O)c2)cn1` | 33.32% | 15.12% |
| `O=C(Nc1cnc(Oc2ccccc2F)nc1)C1CC1` | 3.918% | 28.25% |
| `CC(=O)N1CCC(NC2(Cc3cc(CN(C)C)on3)COC2)CC1` | -37.68% | -21.46% |
| `COc1ncccc1C(=O)N1CCC(c2nc3c(C)cccc3[nH]2)CC1` | 17.28% | 7.83% |
| `Cc1cc(NC(=O)CNc2cccc(C(=O)N3CCCC(O)C3)c2)no1` (centres undefined) | -9.119% | 7.438% |
| `O=C(NCCN1CCCC1)c1nc2c(o1)CN(c1ncccn1)C2` | -2.263% | 2.99% |
| `O=C(O)C(F)(F)F.[H][C@@]12CN(Cc3ccoc3)CCO[C@]1([H])CN(S(=O)(=O)C1CC1)C2` | 18.01% | -5.071% |
| `CCc1cc(=O)n(CCNC(=O)Nc2ccc(OC(F)(F)F)cc2)cn1` | 39.05% | 32.6% |
| `O=C(c1csc(-c2ccco2)n1)N(CC1CCOC1)C1CC1` (centres undefined) | 6.198% | 15.17% |
| `C=C(C)COc1cccc(C(=O)N2CCC3(CC2)CN(C)CCN3C)c1` | -73.86% | 17.72% |
| `Cl.c1nc(CCC2CCCN2)cc(N2CCCOCC2)n1` (centres undefined) | -1.974% | -10.77% |
| `CSc1ccc(Cl)c(C(=O)N2CCCC(CNS(C)(=O)=O)C2)c1` (centres undefined) | -29.03% | 0.6475% |
| `O=C(NCCC1=CCCCC1)c1cc(-c2ccc(O)cc2)n[nH]1` | 22.09% | 57.62% |
| `CC(C)n1nc(Cn2cccn2)c2c1CN(CC1CCOC1)C2.O=C(O)C(F)(F)F` (centres undefined) | -38.81% | 9.257% |
| `O=C(NCc1ccc(-n2cncn2)nc1)c1cc(Cl)c2c(c1)OCCO2` | - | 3.698% |
| `COc1ccc(-n2ccc(C(=O)NCCN3CCCCC3C)n2)cc1` (centres undefined) | 11.67% | 9.62% |
| `O=C(N1CCOCC1)N1CCCC(c2ncncc2-c2ccncc2)C1` (centres undefined) | 8.144% | -3.694% |
| `CCN1CCN(Cc2ccnc(-c3cccnc3)n2)CC1.O=C(O)CC(O)(CC(=O)O)C(=O)O` | 5.241% | 3.183% |
| `Cc1cc(C(=O)N(C)Cc2cccs2)nc(N2CCCC2)n1` | - | 6.841% |
| `CCN(CC(=O)NC)S(=O)(=O)c1cnc2c(c1)c(C)nn2C` | - | 15.07% |
| `Cc1cnc(N2CCC3(CC(=O)N(Cc4csc(C)n4)C3)C2)nc1.O=C(O)C(F)(F)F` (centres undefined) | 10.64% | -45.04% |
| `Cc1ccc(-c2nc(CSCCC(=O)NC(N)=O)co2)c(C)c1` | 3.495% | -4.544% |
| `CC(C)NC(=O)N1CCCn2cnc(CO)c2C1.O=C(O)C(F)(F)F` | 25.62% | -4.923% |
| `O=C(O)C(F)(F)F.[H][C@]12C[C@@H](C(=O)NC)CO[C@@]1([H])CCN(c1ncc(F)cn1)C2` | 44.52% | -11.38% |
| `CSCC1CCN(c2nc(N)ncc2C)CC1` | -26.93% | 7.24% |
| `O=C1C(n2nnc(-c3ccsc3)n2)CCN1CC(F)(F)F` (centres undefined) | 14.09% | 38.65% |
| `CC(c1nnc(-c2ccccc2)o1)N1CCc2cncnc2C1` (centres undefined) | -7.255% | 13.65% |
| `O=C(O)c1ccc2[nH]cc(CN3CCCC3)c2c1` | -35.36% | 6.98% |
| `Cc1ccc([C@@H]2CN(C(=O)CCc3ccco3)C[C@H]2N(C)C)cc1` | 31.8% | -9.475% |
| `O=C(CC1CCCO1)NCc1ccc(Br)cc1F` (centres undefined) | -6.983% | 2.972% |
| `COc1cc(CN2CCC(O)(c3ccc(C)cn3)CC2)cc(Cl)c1OC` | -26.18% | -18.93% |
| `CCNC(=O)c1ccc(NC(=O)N(C)Cc2cccn2C)c(C)c1` | 26.39% | 16.62% |
| `CC(=O)N1CCC2(CC1)C(=O)N(C)c1ccc(F)cc12` | -1.84% | 15.6% |
| `Cc1cccc(N2CCC3(CCCN3Cc3c(C)nn(C)c3C)CC2)n1` | 37.42% | 13.43% |
| `Cc1c[nH]nc1C1CCCN(c2cnccn2)C1` (centres undefined) | 21.15% | -21.97% |
| `Cc1c(I)cccc1C(=O)NCc1nnc[nH]1` | -8.13% | -10.73% |
| `Cc1ccc(-c2nnc(CN3CCNC(=O)C3)o2)cc1` | -26.99% | -1.013% |
| `CCS(=O)(=O)N1CCc2ccc(NC(=O)Nc3ccccc3C)cc21` | 22.02% | 20.37% |
| `OCc1ccc(CN(CCCn2ccnc2)Cc2ccncc2)o1` | 28.98% | -4.525% |
| `COc1cccc(NC(=O)Cn2c(=O)nc(N)c3cc(C)sc32)c1` | 4.839% | 30.25% |
| `Cc1cc(C)c(CNC(=O)N2CCCC2c2cccc(F)c2)c(=O)[nH]1` (centres undefined) | -33.88% | -23.72% |
| `COc1ccnc(NC2CCN(CC(=O)Nc3ccccc3)CC2)n1` | - | 5.715% |
| `O=C(O)C(F)(F)F.O=C(O)C(F)(F)F.[H][C@@]12CCN(Cc3cccnc3)C(=O)[C@@]1([H])CN(Cc1ccc(C)s1)C2` | -16.94% | -19.89% |
| `CSCC(C)(O)CNC(=O)Nc1cc(C)cc(C)c1` (centres undefined) | 29.32% | 11.11% |
| `CCc1noc(C(C)N(C)Cc2cc(Br)ccc2OC)n1` (centres undefined) | - | -15.08% |
| `OCc1cccc(OCc2ccon2)c1` | - | -6.352% |
| `CCOc1nc2cnccc2n(CC(=O)NCc2ccco2)c1=O` | 17.36% | 16.04% |
| `[H][C@]12CC[C@](O)(CC1)C(COC)N2C(=O)c1ccc2c(c1)OCCCO2` (some centres undefined) | 10.49% | 7.663% |
| `CCc1nc(NCCCn2cccn2)c2c(n1)c(C)nn2CC` | - | -0.468% |
| `CC(C)c1nc(CN(C)C2CCN(CCn3cc(C#N)cn3)C2)no1` (centres undefined) | 8.711% | -8.762% |
| `Cc1cc(C)nc(NC(=O)C(C)Oc2ccc3c(c2)OCO3)n1` (centres undefined) | 10.86% | -18.84% |
| `Cc1csc(NC(=O)CN2CCc3nn(C)c(=O)cc3C2)n1` | -7.586% | 8.067% |
| `Cc1cccnc1C(Nc1nccc(C2CCCC2)n1)C1CC1` (centres undefined) | 47.49% | -8.326% |
| `Cc1nc(C)c(C(=O)N(C)Cc2cnn(C)c2)s1` | -4.455% | -17.75% |
| `c1ccc(-c2nc(CN3CCCC3Cn3cccn3)no2)cc1` (centres undefined) | -15.39% | -3.203% |
| `Cc1noc(C)c1CN1CCN(C(=O)CCn2cncn2)CC1` | -57.12% | -3.616% |

The last 8 entries again:

- CCc1nc(NCCCn2cccn2)c2c(n1)c(C)nn2CC : B: -0.468%
- CC(C)c1nc(CN(C)C2CCN(CCn3cc(C#N)cn3)C2)no1 (centres undefined) : A: 8.711%; B: -8.762%
- Cc1cc(C)nc(NC(=O)C(C)Oc2ccc3c(c2)OCO3)n1 (centres undefined) : A: 10.86%; B: -18.84%
- Cc1csc(NC(=O)CN2CCc3nn(C)c(=O)cc3C2)n1 : A: -7.586%; B: 8.067%
- Cc1cccnc1C(Nc1nccc(C2CCCC2)n1)C1CC1 (centres undefined) : A: 47.49%; B: -8.326%
- Cc1nc(C)c(C(=O)N(C)Cc2cnn(C)c2)s1 : A: -4.455%; B: -17.75%
- c1ccc(-c2nc(CN3CCCC3Cn3cccn3)no2)cc1 (centres undefined) : A: -15.39%; B: -3.203%
- Cc1noc(C)c1CN1CCN(C(=O)CCn2cncn2)CC1 : A: -57.12%; B: -3.616%